Laboratory results published in PMC7819943, “Rice protein-binding microarrays: a tool to detect cis-acting elements near promoter regions in rice”.
The list shows a part of the results.

Sequences of proteins named here, by UniProt entry; tags and fusion partners are left off.
UniProt Q0JBA9, entry or part of it: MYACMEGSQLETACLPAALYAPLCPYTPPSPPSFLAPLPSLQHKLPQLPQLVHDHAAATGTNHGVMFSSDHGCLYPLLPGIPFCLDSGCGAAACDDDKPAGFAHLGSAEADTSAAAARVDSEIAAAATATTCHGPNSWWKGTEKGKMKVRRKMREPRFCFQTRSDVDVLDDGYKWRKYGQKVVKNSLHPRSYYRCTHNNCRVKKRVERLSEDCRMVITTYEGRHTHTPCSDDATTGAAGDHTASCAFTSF

Target: OsWRKY34 (Oryza sativa, UniProt Q0JBA9 1-250)
Test: protein-binding microarray (RPBM); PBS, 2% BSA, 51.3 ng/ul salmon testes DNA, 50 uM zinc acetate, 200 nM TF, 25 C, 1 h; high values mean tight binding
Conditions: protein: recombinant; tags: N-terminal polyhistidine and DsRed monomer fusion (pET32a); label: CyDye5-dUTP incorporated in the synthesized complementary strand; 3' TTTTT single-stranded linker to array surface; dsDNA, one strand shown
In short: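 The binding signal is fluorescence intensity per feature, in arbitrary units, read on an Axon 4000B scanner. Polyhistidine- and DsRed-tagged transcription factors (N-terminal fusions) from E. coli BL21-CodonPlus were purified on Ni–NTA and applied at 200 nM for 1 h at 25 °C to a double-stranded, BSA-blocked custom Agilent array in buffer with 50 µM zinc acetate.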

Row | Sequence | binding signal
1 | TTCATTGTTCATCTATTTTGATCTTTTCTTGGGACATTTCCGGAGTCACCTAGTGCAG | 14800 fluorescence intensity (a.u.)
2 | GGGCGTGTGGTTGAGAACTTGATTGGGATGATGATGAGACCGGAGTCACCTAGTGCAG | 10400 fluorescence intensity (a.u.)
3 | ACCTCGGAAAGTACGGGGTTCTCGTCGGCTGGGTGGGTGTCGGAGTCACCTAGTGCAG | 11500 fluorescence intensity (a.u.)
4 | TTGCATTTGAAGACATGTAGTGTGTAGGGTGGGTTCTATTCGGAGTCACCTAGTGCAG | 13500 fluorescence intensity (a.u.)
5 | GGTGAGTTTTTTTTTTCTTTCAAATCTCACTCTCTTTTCTCGGAGTCACCTAGTGCAG | 9010 fluorescence intensity (a.u.)
6 | CTTGTCCGCTTAATTAAATTGATACCATTTTCGTTCTTGTCGGAGTCACCTAGTGCAG | 9810 fluorescence intensity (a.u.)
7 | ATCCACGGCCTCTCATCTGCTCCATCCAACGCCCGTCCTTCGGAGTCACCTAGTGCAG | 8110 fluorescence intensity (a.u.)
8 | GCACAGGGGCTGGTTTGGTCTCATAGTGATGCACTTGATACGGAGTCACCTAGTGCAG | 10900 fluorescence intensity (a.u.)
9 | TAGCCCGTACAGCTAAGCTAGCCACCTCCTCCTCTATTTTCGGAGTCACCTAGTGCAG | 8370 fluorescence intensity (a.u.)
10 | CTCTTCATTTTTTTAATAGATAGCGTCGTTGACTTTTGAACGGAGTCACCTAGTGCAG | 14800 fluorescence intensity (a.u.)
11 | CGCCTCCGCCTCCTTCTCTTCCCGTCCGTTCATCCAGATGCGGAGTCACCTAGTGCAG | 9920 fluorescence intensity (a.u.)
12 | TGCTTTGGTTGTCTTCTTTATCTAGAAGGCTTTGATTGCTCGGAGTCACCTAGTGCAG | 9520 fluorescence intensity (a.u.)
13 | ATCTGGCCTACAGCTCTATATAGGGTTGTCATCGCTTGCCCGGAGTCACCTAGTGCAG | 8080 fluorescence intensity (a.u.)
14 | CTACACTAGATCGACTAGGCTACTCTACTTCTCTTCTGGACGGAGTCACCTAGTGCAG | 8280 fluorescence intensity (a.u.)
15 | AAATTCTTCAGTTTTGACATATACCATTACTACGCCATTACGGAGTCACCTAGTGCAG | 8660 fluorescence intensity (a.u.)
16 | TTGCTTCCTTTGTCCTTACTGACATTATTACCTCAGAGACCGGAGTCACCTAGTGCAG | 8870 fluorescence intensity (a.u.)
17 | ATTGTCAGCCACTTTTCACATTTCTCGTCTATTCATTTTCCGGAGTCACCTAGTGCAG | 15900 fluorescence intensity (a.u.)
18 | TCTTATGGTATGTTTGATAGAGCTCGAACTCATAAATTTACGGAGTCACCTAGTGCAG | 8250 fluorescence intensity (a.u.)
19 | GGCACCACCATCCGTTGCTCATCATCTGACCTTTTCCTGACGGAGTCACCTAGTGCAG | 11900 fluorescence intensity (a.u.)
20 | ACCTGCAGCTCAAGCAAATCTCACTAGCTAACTATACAAACGGAGTCACCTAGTGCAG | 8060 fluorescence intensity (a.u.)
21 | TTGGTTTGAATTTGTTAGAGCGGGTGGGGATGGGCTGGATCGGAGTCACCTAGTGCAG | 11700 fluorescence intensity (a.u.)
22 | TCGTCGCTCCCATCTCCACTCGTCTCGACGCATCCGAGATCGGAGTCACCTAGTGCAG | 8500 fluorescence intensity (a.u.)
23 | TTTCTCTGAAGCTCATTATAGACCAGCTTTTGTAATCATGCGGAGTCACCTAGTGCAG | 9040 fluorescence intensity (a.u.)

Part of the list above, set out differently:
Row	Sequence	binding signal
10	CTCTTCATTTTTTTAATAGATAGCGTCGTTGACTTTTGAACGGAGTCACCTAGTGCAG	14800 fluorescence intensity (a.u.)
11	CGCCTCCGCCTCCTTCTCTTCCCGTCCGTTCATCCAGATGCGGAGTCACCTAGTGCAG	9920 fluorescence intensity (a.u.)
